# In publication PMC7819943, “Rice protein-binding microarrays: a tool to detect cis-acting elements near promoter regions in rice”:
# The other results are listed elsewhere or left out.
# Target: T1, OsSMF1 (Oryza sativa, UniProt Q6ZLB0 1-436)
# T1 sequence: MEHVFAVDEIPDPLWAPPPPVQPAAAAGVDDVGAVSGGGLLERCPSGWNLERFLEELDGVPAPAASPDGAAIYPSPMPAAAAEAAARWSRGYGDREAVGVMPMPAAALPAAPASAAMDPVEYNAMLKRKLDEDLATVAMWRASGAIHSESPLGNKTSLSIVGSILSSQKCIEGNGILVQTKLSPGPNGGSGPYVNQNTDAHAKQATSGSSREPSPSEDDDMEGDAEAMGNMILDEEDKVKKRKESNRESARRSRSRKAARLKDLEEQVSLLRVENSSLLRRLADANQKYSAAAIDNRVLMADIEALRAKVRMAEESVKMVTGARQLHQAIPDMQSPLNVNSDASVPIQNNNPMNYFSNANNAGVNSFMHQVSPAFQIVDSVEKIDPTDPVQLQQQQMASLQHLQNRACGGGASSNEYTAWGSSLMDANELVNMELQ
# Test: protein-binding microarray (RPBM); PBS, 2% BSA, 51.3 ng/ul salmon testes DNA, 50 uM zinc acetate, 200 nM TF, 25 C, 1 h; high values mean tight binding
# Details: protein: recombinant; tags: N-terminal polyhistidine and DsRed monomer fusion (pET32a); chain copies: 2; label: CyDye5-dUTP incorporated in the synthesized complementary strand; 3' TTTTT single-stranded linker to array surface; dsDNA, one strand shown
# How it was run: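 Polyhistidine-tagged DsRed fusions of transcription factors, joined at the N-terminus, were expressed in E. coli BL21-CodonPlus and isolated on Ni–NTA. They were incubated at 200 nM for 1 h at 25 °C on a custom Agilent array, double-stranded and BSA-blocked, in PBS with 2% BSA, salmon testes DNA and 50 µM zinc acetate. The binding signal is per-feature fluorescence intensity (arbitrary units) read on an Axon 4000B scanner after washing.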
row,Sequence,binding signal
1,TTGCAGCATTCAGCTCGCGTATACACGACCTTAAATTACGCGGAGTCACCTAGTGCAG,3320 fluorescence intensity (a.u.)
2,AGGTGATGAAGACCCACGACGCCGCGTTCGCCACCCGGGCCGGAGTCACCTAGTGCAG,17000 fluorescence intensity (a.u.)
3,CGACTGTGAGCCCTCCGTTCTCGCCGCGGAAGGATCCCTCCGGAGTCACCTAGTGCAG,29700 fluorescence intensity (a.u.)
4,AAAATAGAAAGCCAATTCCTCCCCGTGTCGGCCACTTCTCCGGAGTCACCTAGTGCAG,3360 fluorescence intensity (a.u.)
5,AGCGAAGGAATGGGAGCTCGACACGGCTGTCTGCTGCCACCGGAGTCACCTAGTGCAG,3300 fluorescence intensity (a.u.)
6,TTCATCCATCCTTGCTCCACGTCCCAATCTCCTCCTCCTCCGGAGTCACCTAGTGCAG,7980 fluorescence intensity (a.u.)
7,ACATCCACAACCATCTCCACCTCACCTCGTCCATCGTCTCCGGAGTCACCTAGTGCAG,6010 fluorescence intensity (a.u.)
8,ATTTGTGGGCCCCACTGCCAGTGACTCTTCTGTCCACTGCCGGAGTCACCTAGTGCAG,4390 fluorescence intensity (a.u.)
9,AATATTTGCGACTTGGTACGTTGCGTCCCATAGCCTCACTCGGAGTCACCTAGTGCAG,3590 fluorescence intensity (a.u.)
10,TAGGTCATTCTAACATTTTCCACATTAATATGCATGTTACCGGAGTCACCTAGTGCAG,29200 fluorescence intensity (a.u.)
11,CTGTAGGTGAGTGACACTAGTACTCATCATCATCATCATCCGGAGTCACCTAGTGCAG,4600 fluorescence intensity (a.u.)
12,CCCCGACGCCTTCGTCCAGGCGAGAAGGCCAAGCGTCCTCCGGAGTCACCTAGTGCAG,34100 fluorescence intensity (a.u.)
13,ATACTGTTTCTTGTCGATCTATTGTCAATTTGTCATAGTACGGAGTCACCTAGTGCAG,3750 fluorescence intensity (a.u.)
14,GCGCGGCGGTGCGGCGGCGGCGGCGGCGTCATGTACCTCCCGGAGTCACCTAGTGCAG,4710 fluorescence intensity (a.u.)
15,ACCGGCGGCGGTGACCTAATGTCATGTCATGTCAGTAATGCGGAGTCACCTAGTGCAG,5160 fluorescence intensity (a.u.)
16,TGATGGCTCTTGCACTGTCATGCGGCTGCACAGATGTTTCCGGAGTCACCTAGTGCAG,4090 fluorescence intensity (a.u.)
17,TACTCACTAGTAGAACACATGGCCCACTGAATAGTGGGACCGGAGTCACCTAGTGCAG,23300 fluorescence intensity (a.u.)
18,TCGCCCATCCACGACAGGTTCCCAAGAGTGCCTCCGCTGGCGGAGTCACCTAGTGCAG,3470 fluorescence intensity (a.u.)
19,TGGGAGTGCGTGGTGTGCGTGGCGTCGGTTCTTGCGGAGGCGGAGTCACCTAGTGCAG,5410 fluorescence intensity (a.u.)
20,AGGATGTCACACGTACACTTTTCCTTACGAAATTTCCTTACGGAGTCACCTAGTGCAG,3530 fluorescence intensity (a.u.)
21,AAACCAGCCGCCCCGCAACCCAACAGCTATCTTTTCCCATCGGAGTCACCTAGTGCAG,3500 fluorescence intensity (a.u.)

# As a short view, part of the list above.
row,Sequence,binding signal
7,ACATCCACAACCATCTCCACCTCACCTCGTCCATCGTCTCCGGAGTCACCTAGTGCAG,6010 fluorescence intensity (a.u.)
8,ATTTGTGGGCCCCACTGCCAGTGACTCTTCTGTCCACTGCCGGAGTCACCTAGTGCAG,4390 fluorescence intensity (a.u.)

# Remaining list, next part.

row,Sequence,binding signal
1,GACCTGATGCAGCTGAGCCCGTGCGTCAGCGCGTTCTCCGCGGAGTCACCTAGTGCAG,3400 fluorescence intensity (a.u.)
2,GCCAAACGCGCCAGATCCGCGCCTCCTCCACTCACACGCGCGGAGTCACCTAGTGCAG,3360 fluorescence intensity (a.u.)
3,TGTGTGTGTGTGTGTTGAATCATCCGACATCGTGCTATTACGGAGTCACCTAGTGCAG,3710 fluorescence intensity (a.u.)
4,CGCCTCGTCATCGTCGTCGGCCCGGTTGCCCACCTCTTCACGGAGTCACCTAGTGCAG,6740 fluorescence intensity (a.u.)
5,CTGCATGCGTATATACGACCGTGTGCATGCATATGCATGGCGGAGTCACCTAGTGCAG,3880 fluorescence intensity (a.u.)
6,TATTACCCTGAGTAGACGATTGACTCATTATATAATGATGCGGAGTCACCTAGTGCAG,3320 fluorescence intensity (a.u.)
7,CTTTTCCAGTGACGCGTGCAGTTTACCAACCACCTGCTCTCGGAGTCACCTAGTGCAG,7150 fluorescence intensity (a.u.)
8,AGGTGGAACCCGGTGGCCACGTCGCCGGCGGTGACGGCCGCGGAGTCACCTAGTGCAG,5720 fluorescence intensity (a.u.)
9,GCAAAAGATGTGTCACGCATTCCAACCCAAATTCTGCGGTCGGAGTCACCTAGTGCAG,3360 fluorescence intensity (a.u.)
10,ATTGGATGCATTGTCTCGCTGTGACAGGCCTTCTCCTAGACGGAGTCACCTAGTGCAG,3380 fluorescence intensity (a.u.)
11,CTCCGTGAGCCCTTCCTCCTCCGCTCCTCTCCTTTCCGCCCGGAGTCACCTAGTGCAG,15600 fluorescence intensity (a.u.)
12,GGATCCCCTTCCCACGCGTCCCTCCTCCTCCCTTCGTCCACGGAGTCACCTAGTGCAG,3760 fluorescence intensity (a.u.)
13,CGTGCTCTCCGGCCTCATCAACGAGGTCACGCCGCCGTGGCGGAGTCACCTAGTGCAG,3380 fluorescence intensity (a.u.)
14,CGATTCGAAATCTGCCACGCTTTATTCCCGCCATCTCATTCGGAGTCACCTAGTGCAG,4280 fluorescence intensity (a.u.)
15,AATATAAGGTTGTTTCTGCCTTCTGGATTGCTGGACTGAACGGAGTCACCTAGTGCAG,3400 fluorescence intensity (a.u.)
16,GAGGACGAGCGGGCGGACGGAGTCGGGGTGCGCGGCGAGGCGGAGTCACCTAGTGCAG,27000 fluorescence intensity (a.u.)
17,GGCCAAGTGGTGGTGACTGGTGAGAGAAGCGAGGTAGGGTCGGAGTCACCTAGTGCAG,4190 fluorescence intensity (a.u.)
18,CCAGACGCACGAATGCATGACTCAGGTCCAGTTCTTTTCTCGGAGTCACCTAGTGCAG,6510 fluorescence intensity (a.u.)
19,CATGTATCTAATTAACCCAATTTCCAACGGCACCCAGCTGCGGAGTCACCTAGTGCAG,3470 fluorescence intensity (a.u.)
20,AAATTCAAACTGTGACTCCCCGTGATCTTGACTTGCTGTTCGGAGTCACCTAGTGCAG,3250 fluorescence intensity (a.u.)
21,GACCTCTTGCTAACTTTCCTTCAAAATGTATATAGAATTACGGAGTCACCTAGTGCAG,29000 fluorescence intensity (a.u.)
